For five molecules, binding results are on record in publication PMC7955098.

Protein sequences, listed by entry. Tags and fused reporters are not part of them.
UniProt O15550: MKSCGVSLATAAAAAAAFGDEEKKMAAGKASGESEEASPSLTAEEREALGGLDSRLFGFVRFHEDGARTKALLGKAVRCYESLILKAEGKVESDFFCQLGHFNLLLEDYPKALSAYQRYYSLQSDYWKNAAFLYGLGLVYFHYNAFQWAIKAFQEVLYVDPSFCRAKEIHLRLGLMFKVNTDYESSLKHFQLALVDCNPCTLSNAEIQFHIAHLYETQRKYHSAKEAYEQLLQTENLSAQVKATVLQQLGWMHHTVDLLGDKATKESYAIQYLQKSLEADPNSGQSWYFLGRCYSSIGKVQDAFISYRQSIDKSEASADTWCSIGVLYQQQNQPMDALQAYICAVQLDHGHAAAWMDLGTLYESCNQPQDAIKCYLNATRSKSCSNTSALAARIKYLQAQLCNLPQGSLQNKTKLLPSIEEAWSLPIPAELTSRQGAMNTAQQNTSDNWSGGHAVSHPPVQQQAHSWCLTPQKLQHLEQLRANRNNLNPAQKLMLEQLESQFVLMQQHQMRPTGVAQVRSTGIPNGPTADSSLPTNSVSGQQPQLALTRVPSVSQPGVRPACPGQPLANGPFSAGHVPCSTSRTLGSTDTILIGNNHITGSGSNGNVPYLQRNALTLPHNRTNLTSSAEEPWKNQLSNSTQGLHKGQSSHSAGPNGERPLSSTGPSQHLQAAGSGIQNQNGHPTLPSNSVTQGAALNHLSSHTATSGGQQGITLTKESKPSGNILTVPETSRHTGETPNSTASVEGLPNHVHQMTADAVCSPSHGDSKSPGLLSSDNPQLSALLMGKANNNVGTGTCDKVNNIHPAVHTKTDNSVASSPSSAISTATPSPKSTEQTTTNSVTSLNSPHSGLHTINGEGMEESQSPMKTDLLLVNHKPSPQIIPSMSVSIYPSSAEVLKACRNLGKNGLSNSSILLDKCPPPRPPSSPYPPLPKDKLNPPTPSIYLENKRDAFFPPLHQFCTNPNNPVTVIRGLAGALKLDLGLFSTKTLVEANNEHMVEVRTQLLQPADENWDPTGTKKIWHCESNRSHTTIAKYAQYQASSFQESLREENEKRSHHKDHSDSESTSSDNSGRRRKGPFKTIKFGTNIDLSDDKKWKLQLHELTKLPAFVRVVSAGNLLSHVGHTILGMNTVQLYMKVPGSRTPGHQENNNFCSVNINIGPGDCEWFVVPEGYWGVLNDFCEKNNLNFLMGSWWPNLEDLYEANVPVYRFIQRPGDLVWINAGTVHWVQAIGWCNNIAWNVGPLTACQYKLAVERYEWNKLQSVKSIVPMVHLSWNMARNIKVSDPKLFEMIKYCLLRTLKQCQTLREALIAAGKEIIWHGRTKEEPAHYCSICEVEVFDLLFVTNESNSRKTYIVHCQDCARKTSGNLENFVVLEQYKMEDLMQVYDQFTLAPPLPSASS
UniProt O70546: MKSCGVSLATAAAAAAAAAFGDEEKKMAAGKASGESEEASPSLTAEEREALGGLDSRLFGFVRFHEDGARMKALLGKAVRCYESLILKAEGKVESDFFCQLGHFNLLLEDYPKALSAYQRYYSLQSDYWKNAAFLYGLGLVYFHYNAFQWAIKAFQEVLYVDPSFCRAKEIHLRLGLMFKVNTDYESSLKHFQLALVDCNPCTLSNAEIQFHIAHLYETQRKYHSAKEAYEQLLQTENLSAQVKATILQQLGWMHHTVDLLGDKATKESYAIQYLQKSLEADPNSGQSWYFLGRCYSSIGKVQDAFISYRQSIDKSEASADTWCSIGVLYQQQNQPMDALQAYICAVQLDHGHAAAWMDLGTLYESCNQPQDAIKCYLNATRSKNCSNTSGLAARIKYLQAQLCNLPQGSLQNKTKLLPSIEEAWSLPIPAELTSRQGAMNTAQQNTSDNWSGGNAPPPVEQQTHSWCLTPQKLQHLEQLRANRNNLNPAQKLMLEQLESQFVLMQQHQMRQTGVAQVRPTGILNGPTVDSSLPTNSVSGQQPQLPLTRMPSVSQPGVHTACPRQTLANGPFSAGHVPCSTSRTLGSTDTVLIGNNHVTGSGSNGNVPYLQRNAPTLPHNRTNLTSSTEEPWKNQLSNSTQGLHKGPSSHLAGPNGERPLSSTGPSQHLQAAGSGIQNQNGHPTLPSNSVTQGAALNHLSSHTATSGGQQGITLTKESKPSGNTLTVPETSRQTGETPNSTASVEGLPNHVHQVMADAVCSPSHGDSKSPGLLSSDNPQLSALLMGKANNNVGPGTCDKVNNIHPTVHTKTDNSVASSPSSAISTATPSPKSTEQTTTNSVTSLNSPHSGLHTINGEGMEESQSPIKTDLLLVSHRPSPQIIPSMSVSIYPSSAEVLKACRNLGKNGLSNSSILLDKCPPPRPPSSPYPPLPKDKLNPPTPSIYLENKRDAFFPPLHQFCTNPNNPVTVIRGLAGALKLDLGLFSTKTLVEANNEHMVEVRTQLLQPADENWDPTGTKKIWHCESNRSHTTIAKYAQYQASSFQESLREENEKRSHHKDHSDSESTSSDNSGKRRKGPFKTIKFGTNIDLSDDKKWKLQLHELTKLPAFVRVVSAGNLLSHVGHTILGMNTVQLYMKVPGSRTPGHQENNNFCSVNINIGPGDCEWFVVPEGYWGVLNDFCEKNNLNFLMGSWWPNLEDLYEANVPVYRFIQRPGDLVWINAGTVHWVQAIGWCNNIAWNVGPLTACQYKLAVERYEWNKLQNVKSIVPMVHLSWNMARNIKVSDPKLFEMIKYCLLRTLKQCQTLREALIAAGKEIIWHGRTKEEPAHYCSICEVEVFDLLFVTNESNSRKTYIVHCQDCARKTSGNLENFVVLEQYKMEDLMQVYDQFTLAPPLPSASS
UniProt Q12824: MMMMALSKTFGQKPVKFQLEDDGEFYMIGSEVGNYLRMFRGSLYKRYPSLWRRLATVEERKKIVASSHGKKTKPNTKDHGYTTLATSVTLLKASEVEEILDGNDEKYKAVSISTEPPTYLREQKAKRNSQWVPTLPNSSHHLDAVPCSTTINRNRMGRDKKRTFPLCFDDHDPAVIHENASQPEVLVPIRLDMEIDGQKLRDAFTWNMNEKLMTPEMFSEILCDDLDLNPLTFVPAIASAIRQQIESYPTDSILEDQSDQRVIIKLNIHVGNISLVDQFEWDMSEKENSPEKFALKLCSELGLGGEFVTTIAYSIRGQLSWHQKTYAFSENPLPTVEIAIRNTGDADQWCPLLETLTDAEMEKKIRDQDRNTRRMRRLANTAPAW
UniProt Q3TKT4: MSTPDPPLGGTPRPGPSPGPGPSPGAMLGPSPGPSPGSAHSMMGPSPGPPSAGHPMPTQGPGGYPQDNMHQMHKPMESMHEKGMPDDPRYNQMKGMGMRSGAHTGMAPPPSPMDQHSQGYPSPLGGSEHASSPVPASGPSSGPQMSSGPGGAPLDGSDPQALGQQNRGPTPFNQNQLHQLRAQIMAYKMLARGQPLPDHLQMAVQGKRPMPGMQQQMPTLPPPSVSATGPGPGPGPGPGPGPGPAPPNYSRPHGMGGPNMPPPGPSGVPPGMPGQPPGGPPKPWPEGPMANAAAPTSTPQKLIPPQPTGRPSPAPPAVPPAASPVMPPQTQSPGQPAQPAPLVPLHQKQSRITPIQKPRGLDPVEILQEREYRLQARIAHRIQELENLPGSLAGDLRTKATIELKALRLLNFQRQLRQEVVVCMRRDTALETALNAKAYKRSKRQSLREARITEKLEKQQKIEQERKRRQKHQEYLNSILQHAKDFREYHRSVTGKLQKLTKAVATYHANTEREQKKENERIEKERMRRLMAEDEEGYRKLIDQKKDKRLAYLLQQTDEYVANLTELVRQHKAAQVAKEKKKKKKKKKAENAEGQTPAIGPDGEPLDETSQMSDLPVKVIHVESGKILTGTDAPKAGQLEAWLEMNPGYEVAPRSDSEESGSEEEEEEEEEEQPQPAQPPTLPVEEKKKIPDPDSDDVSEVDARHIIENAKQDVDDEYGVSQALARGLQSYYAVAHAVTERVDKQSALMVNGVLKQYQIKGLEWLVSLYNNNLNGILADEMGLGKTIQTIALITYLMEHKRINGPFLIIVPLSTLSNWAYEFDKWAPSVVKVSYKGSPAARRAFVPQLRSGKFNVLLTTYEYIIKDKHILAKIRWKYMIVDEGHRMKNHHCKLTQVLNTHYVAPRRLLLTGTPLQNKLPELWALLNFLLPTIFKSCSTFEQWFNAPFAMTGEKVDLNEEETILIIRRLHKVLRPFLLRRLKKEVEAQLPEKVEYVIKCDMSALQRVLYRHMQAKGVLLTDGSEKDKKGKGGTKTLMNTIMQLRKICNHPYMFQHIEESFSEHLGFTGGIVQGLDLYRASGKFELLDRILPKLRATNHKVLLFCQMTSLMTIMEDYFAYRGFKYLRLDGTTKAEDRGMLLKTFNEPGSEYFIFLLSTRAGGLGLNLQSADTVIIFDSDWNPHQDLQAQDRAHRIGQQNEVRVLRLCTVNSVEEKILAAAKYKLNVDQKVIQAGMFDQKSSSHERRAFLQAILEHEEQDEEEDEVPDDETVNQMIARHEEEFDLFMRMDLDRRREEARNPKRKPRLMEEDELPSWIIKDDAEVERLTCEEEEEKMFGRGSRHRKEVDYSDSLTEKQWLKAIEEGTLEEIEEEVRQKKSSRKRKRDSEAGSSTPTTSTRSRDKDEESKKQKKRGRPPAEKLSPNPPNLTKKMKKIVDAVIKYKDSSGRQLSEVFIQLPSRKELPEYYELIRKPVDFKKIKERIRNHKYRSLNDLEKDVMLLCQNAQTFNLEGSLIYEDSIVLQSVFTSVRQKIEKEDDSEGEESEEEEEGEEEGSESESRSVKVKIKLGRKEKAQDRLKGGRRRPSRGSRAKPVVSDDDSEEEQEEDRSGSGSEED
UniProt P51532: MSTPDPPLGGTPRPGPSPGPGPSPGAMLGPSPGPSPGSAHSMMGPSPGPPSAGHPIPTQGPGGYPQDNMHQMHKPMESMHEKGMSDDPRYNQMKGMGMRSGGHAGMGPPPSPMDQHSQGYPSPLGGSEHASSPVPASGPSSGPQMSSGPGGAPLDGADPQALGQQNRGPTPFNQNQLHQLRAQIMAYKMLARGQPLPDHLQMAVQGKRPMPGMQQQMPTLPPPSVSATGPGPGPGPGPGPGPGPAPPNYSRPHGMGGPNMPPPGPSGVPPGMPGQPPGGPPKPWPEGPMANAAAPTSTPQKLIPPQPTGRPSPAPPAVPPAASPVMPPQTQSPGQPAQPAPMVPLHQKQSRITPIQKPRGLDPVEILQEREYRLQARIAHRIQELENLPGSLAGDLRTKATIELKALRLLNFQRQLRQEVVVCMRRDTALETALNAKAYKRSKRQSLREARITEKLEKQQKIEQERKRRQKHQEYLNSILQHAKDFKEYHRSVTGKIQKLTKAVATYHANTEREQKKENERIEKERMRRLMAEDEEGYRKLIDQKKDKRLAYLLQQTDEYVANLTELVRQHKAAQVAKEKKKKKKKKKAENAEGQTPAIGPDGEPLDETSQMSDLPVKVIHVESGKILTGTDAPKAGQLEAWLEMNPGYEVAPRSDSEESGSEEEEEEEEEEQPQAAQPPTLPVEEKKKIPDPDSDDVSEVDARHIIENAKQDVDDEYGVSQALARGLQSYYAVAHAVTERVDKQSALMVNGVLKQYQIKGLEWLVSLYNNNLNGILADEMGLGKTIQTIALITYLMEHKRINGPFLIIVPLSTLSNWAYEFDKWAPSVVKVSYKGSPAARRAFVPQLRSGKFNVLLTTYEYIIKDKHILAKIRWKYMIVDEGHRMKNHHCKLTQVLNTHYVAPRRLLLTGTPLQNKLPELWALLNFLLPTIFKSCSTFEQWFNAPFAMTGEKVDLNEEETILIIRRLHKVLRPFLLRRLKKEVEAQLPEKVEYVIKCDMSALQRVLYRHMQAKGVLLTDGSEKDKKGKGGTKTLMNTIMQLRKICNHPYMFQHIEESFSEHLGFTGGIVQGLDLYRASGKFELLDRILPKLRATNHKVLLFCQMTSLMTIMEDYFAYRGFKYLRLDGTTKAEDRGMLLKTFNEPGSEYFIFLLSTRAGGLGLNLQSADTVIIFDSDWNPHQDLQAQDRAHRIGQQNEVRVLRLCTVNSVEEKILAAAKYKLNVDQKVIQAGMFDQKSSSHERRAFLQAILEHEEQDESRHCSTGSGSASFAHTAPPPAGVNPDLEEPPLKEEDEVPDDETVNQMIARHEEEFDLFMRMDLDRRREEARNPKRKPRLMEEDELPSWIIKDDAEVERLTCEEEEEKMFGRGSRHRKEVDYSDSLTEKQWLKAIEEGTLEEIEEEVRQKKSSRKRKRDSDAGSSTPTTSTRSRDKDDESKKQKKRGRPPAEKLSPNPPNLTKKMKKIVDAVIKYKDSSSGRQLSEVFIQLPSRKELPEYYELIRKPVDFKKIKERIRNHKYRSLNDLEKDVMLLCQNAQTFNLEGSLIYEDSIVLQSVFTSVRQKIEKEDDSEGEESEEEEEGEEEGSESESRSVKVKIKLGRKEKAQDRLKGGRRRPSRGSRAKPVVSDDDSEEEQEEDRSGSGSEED

Assay [1] deals with MLL4 (KMT2D), human, endogenous (human (endogenous in HEK293T)) (UniProt O14686). In words: co-IP; HEK293T nuclear extract diluted in IP buffer (50 mM Tris-HCl pH 7.5, 1 mM EDTA, 150 mM NaCl, 1% Triton X-100), anti-MLL4 or anti-UTX antibody overnight at 4 °C, Dynabeads Protein A; Western blot.
Assay [2] concerns the target UTX, human, endogenous (human (endogenous in HEK293T)) (UniProt O15550). The description is as above.
Assay [3] concerns the target MLL4 (KMT2D), mouse, endogenous (mouse (endogenous in mouse ES cells and mouse preadipocytes)) (UniProt Q6PDK2). In words: co-IP; nuclear extract of mouse preadipocytes at D2 of adipogenesis diluted in IP buffer (50 mM Tris-HCl pH 7.5, 1 mM EDTA, 150 mM NaCl, 1% Triton X-100), anti-MLL4 or anti-UTX antibody overnight at 4 °C, Dynabeads Protein A; Western blot.
The target in assay [4] is UTX, mouse, endogenous (mouse (endogenous in mouse ES cells and mouse preadipocytes)) (UniProt O70546). Described as above.

These are yes or no findings as the source states them, for the method shown. In cells and extracts the contact can be indirect. Some results given as binding are weak or reduced against the parent protein; the word gives no strength.

On to “SMARCB1 (SNF5, INI1, or BAF47), human, endogenous (from UniProt Q12824 1-385)”, for which the binding result in assay [1] and in assay [2] was “binds” in each case.

For “SMARCA4 (BRG1), mouse, endogenous (from UniProt Q3TKT4 1-1613)”, the binding entry in assay [3] and in assay [4] was “binds” throughout.

On to “SMARCA4 (BRG1), human, endogenous (from UniProt P51532 1-1647)”, for which the binding entry in assay [1] and in assay [2] was “binds” in each case.

B1: Menin, MLL1 complex subunit, mouse, endogenous (protein, UniProt O88559 1-611)
chain: MGLKAAQKTLFPLRSIDDVVRLFAAELGREEPDLVLLSLVLGFVEHFLAVNRVIPTNVPELTFQPSPAPDPPGGLTYFPVADLSIIAALYARFTAQIRGAVDLSLYPREGGVSSRELVKKVSDVIWNSLSRSYFKDRAHIQSLFSFITGTKLDSSGVAFAVVGACQALGLRDVHLALSEDHAWVVFGPNGEQTAEVTWHGKGNEDRRGQTVNAGVAERSWLYLKGSYMRCDRKMEVAFMVCAINPSIDLHTDSLELLQLQQKLLWLLYDLGHLERYPMALGNLADLEELEPTPGRPDPLTLYHKGIASAKTYYQDEHIYPYMYLAGYHCRNRNVREALQAWADTATVIQDYNYCREDEEIYKEFFEVANDVIPNLLKEAASLLETGEERTGEQAQGTQGQGSALQDPECFAHLLRFYDGICKWEEGSPTPVLHVGWATFLVQSLGRFEGQVRQKVHIVSREAEAAEAEEPWGDEAREGRRRGPRRESKPEEPPPPKKPALDKGPGSGQSAGSGPPRKTSGTVPGTTRGGQEVGNAAQAPAPAASPPPEGPVLTFQSEKMKGMKELLVATKINSSAIKLQLTAQSQVQMKKQKVSTPSDYTLSFLKRQRKGL
With B1, the binding entry in assay [3] and in assay [4] was “no binding” in each case.

B2: Menin, MLL1 complex subunit, human, endogenous (protein, UniProt O00255 1-610)
chain: MGLKAAQKTLFPLRSIDDVVRLFAAELGREEPDLVLLSLVLGFVEHFLAVNRVIPTNVPELTFQPSPAPDPPGGLTYFPVADLSIIAALYARFTAQIRGAVDLSLYPREGGVSSRELVKKVSDVIWNSLSRSYFKDRAHIQSLFSFITGTKLDSSGVAFAVVGACQALGLRDVHLALSEDHAWVVFGPNGEQTAEVTWHGKGNEDRRGQTVNAGVAERSWLYLKGSYMRCDRKMEVAFMVCAINPSIDLHTDSLELLQLQQKLLWLLYDLGHLERYPMALGNLADLEELEPTPGRPDPLTLYHKGIASAKTYYRDEHIYPYMYLAGYHCRNRNVREALQAWADTATVIQDYNYCREDEEIYKEFFEVANDVIPNLLKEAASLLEAGEERPGEQSQGTQSQGSALQDPECFAHLLRFYDGICKWEEGSPTPVLHVGWATFLVQSLGRFEGQVRQKVRIVSREAEAAEAEEPWGEEAREGRRRGPRRESKPEEPPPPKKPALDKGLGTGQGAVSGPPRKPPGTVAGTARGPEGGSTAQVPAPTASPPPEGPVLTFQSEKMKGMKELLVATKINSSAIKLQLTAQSQVQMKKQKVSTPSDYTLSFLKRQRKGL
In the case of B2, the binding entry in assay [1] and in assay [2] was “no binding” each time.
